Measurements: the supplement of paper PMC3334620
Over roughly 33,000 sequences, “E-score (-0.5 to 0.5)” has its median near -0.016; the highest 2% begin near 0.3. This is one part of the list.

Molecular target: T1, Yer184c (UniProt P39961)
T1 sequence: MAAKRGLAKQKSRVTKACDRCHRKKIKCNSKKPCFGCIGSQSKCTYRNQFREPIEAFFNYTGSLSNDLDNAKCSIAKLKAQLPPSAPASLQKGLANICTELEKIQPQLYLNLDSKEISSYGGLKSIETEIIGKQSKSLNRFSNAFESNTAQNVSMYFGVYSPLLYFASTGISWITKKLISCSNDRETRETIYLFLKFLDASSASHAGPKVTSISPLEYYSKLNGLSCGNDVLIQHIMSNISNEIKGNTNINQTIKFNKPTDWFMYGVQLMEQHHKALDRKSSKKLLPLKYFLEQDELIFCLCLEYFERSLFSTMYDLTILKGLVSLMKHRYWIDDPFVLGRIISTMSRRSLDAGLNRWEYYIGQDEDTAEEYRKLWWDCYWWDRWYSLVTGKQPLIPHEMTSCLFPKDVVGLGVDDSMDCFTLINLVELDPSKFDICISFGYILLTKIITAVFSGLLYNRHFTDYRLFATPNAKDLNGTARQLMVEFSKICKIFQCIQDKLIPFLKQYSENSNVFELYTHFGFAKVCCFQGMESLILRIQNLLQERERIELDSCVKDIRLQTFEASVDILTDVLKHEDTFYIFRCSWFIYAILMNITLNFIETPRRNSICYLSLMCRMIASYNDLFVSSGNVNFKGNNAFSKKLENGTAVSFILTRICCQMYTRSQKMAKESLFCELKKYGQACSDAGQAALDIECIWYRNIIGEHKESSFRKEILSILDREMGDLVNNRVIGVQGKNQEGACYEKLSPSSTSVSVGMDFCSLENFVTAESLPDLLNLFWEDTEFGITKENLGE
Experiment: PBM E-score (8-mer binding enrichment) (E-score (-0.5 to 0.5)); higher = stronger / more preferred TF binding
Details: protein concentration: 100 nM; construct: GST-full length
Protocol: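 Universal 'all 10-mer' protein binding microarrays (Agilent AMADID 015681) probed with GST-tagged S. cerevisiae TFs (full-length or DBD) made by in vitro transcription/translation (PURExpress), about 100-200 nM. Bound TF was detected with fluorescent anti-GST. Each ungapped 8-mer (which stands for itself and its reverse complement) is scored by the PBM enrichment score (E-score), a modified Wilcoxon-Mann-Whitney statistic from -0.5 to +0.5, computed with the Universal PBM Analysis Suite. Scale: above 0.35 generally sequence-specific binding.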

Sequence	PBM E-score
ATGTCATC	-0.243
AGCTTAAG	-0.0855
AAAGAGCC	-0.164
ATGGCCTG	-0.0401
CTTTGCTC	-0.0306
TAGCTGAA	0.0492
GTCTGCAC	-0.192
CCCCGCTC	-0.255
ACGGTCCA	-0.0592
CGATCAAC	-0.0208
GCTATATA	0.104
TACACTAA	-0.0235
ACATCACG	-0.0968
ACCGCCCC	-0.106
ATGAGATG	-0.0721
CATCAGAA	0.0411
GAAACCCC	-0.0567
AGGGCTGC	-0.145
GGGTTTGA	0.0443
ATTTCGGA	0.348
GTGTGTCA	-0.0284
GGACACGA	-0.0943
AACTAGGC	-0.0776
CGCTTCCG	0.286
AGTTCCCG	0.223

Sequence	PBM E-score
AGCAAGAA	0.11
CAGTCCTA	-0.268
CAGCGATG	-0.107
GAGTTGAC	-0.0176
GAGCCAAC	-0.0948
ACCGGACT	0.101
CGGATAAC	0.34
GAACCGAC	0.213
CAGTATCC	-0.145
CTCCCTAC	-0.22
GGGCGCAC	-0.248
ATAAAATG	0.0585
AATATTAC	0.215
ACTCTGGC	-0.105
CGTGGTCA	0.0155
AAGGACCA	-0.0606
ATATCGCA	-0.157
AGCGGGAT	-0.112
TAAGGGGA	-0.0507
ACCCCCAC	-0.418
ATAACAAT	0.115
ATCATCGG	0.261
AGAGTCAT	-0.268
GCGCGTTA	0.0387
AGCGTCAA	-0.00317

3 entries picked at random from those above:
Sequence	PBM E-score
TACACTAA	-0.0235
AGCGTCAA	-0.00317
GTCTGCAC	-0.192

The list goes on.

Sequence	PBM E-score
ATTGACGC	-0.025
ACTTCGAA	0.123
ACAGATGG	-0.286
AGGATGAC	-0.285
ATGGTCGA	-0.119
ACACGTGT	-0.226
GGAAGAGA	0.065
CCGCCAGC	-0.161
GAACGTCA	-0.303
CGGTATTA	0.251
ATTTCATG	-0.173
GATATGGC	-0.259
CGAAATGA	0.226
CAGAAGGC	-0.169
CCGGGAGG	0.031
AGACAGAA	0.0626
CTGTTGGA	0.0412
ATTGAGTA	0.191
GGAGACTA	-0.102
CAACGAAG	0.0112
AAGGCCAG	-0.221
AGCGTACT	-0.218
CTACCAAG	-0.0732
ATATGTTG	0.0182
AGACCAAT	0.115

Sequence	PBM E-score
AGGGCGGG	0.0124
GCAGTACA	-0.0532
TACTTGAA	0.0272
ATGGACAG	-0.106
GTGAAGAA	0.201
ATATCTCC	0.139
AGGTGCAA	-0.00956
GTCGAGAA	-0.0535
GGAAATCA	0.171
CCCCAAAG	-0.253
ATCCGCTC	0.0705
GTCGCGTA	-0.0448
AAACGCGA	-0.0215
ATCGCCAT	-0.0434
ACTTATAG	-0.094
AAGCGAGT	0.225
ATTAAAAG	0.172
ATAAAGAC	0.0617
GGATTACA	-0.0496
ACACACAC	-0.0681
CGAGAATA	0.102
CGAAGTAC	0.0763
CATCGGCA	0.211
CATCTTGG	-0.0174
AGTGATAT	-0.0302

Sequence	PBM E-score
TGAGAACA	0.12
GAAGGGGC	-0.358
GACAGACA	0.176
AACATGTC	-0.00421
CTGGAGGC	-0.122
ATTGCGGC	0.0068
AGTTTATC	0.175
CTTTGCCA	0.034
ATTATCTG	0.16
ACCGCAAA	0.115
CCATCGTA	-0.0913
ATTCGGGA	0.205
AATTCTTA	0.0305
CCCGGGAA	0.272
AATAGAGG	-0.0709
CCGCCGAG	0.304
AAGTTTGG	0.113
ATCTTACG	0.066
CGACAACG	0.197
AACTGCGG	0.117
ATTAACGA	0.223
AAGATCGC	-0.0568
CCGGGAAG	0.244
CGATACAG	0.0485
CCAATTTC	0.146

Copied from the list.
TGAGAACA – PBM E-score: 0.12
AATTCTTA – PBM E-score: 0.0305

More entries follow:

Sequence	PBM E-score
AGAGTATG	-0.0604
AAATCGCT	-0.116
CAGTAGCC	-0.186
GAACGAAA	-0.0735
CATTGACG	-0.124
CCGTAGCA	-0.0645
AGGTTAAC	-0.037
CCAGTGGG	-0.199
GGTACTTA	0.0666
ACCTTTGC	-0.0958
ATAGAGTC	-0.17
CCGTCCGA	0.102
ACACGTCC	-0.116
GGGTTAGA	-0.134
ACATCACT	-0.0268
CATCAACG	0.0675
GATAGGAC	-0.257
CAGCAATC	-0.0177
TGGTACCA	-0.0226
ACGACATG	-0.053
AAAACCCG	0.163
CTATTCAC	0.105
AAGAGTGT	-0.0038
CAAGAAGA	0.0276
AACATGAT	0.132

No new results follow: an excerpt of the list.
Sequence	PBM E-score
CATCAACG	0.0675
GATAGGAC	-0.257
CAGCAATC	-0.0177
TGGTACCA	-0.0226

(further entries)

Sequence	PBM E-score
CACGAACC	-0.121
AAGCGATC	-0.0129
TAATCCTA	0.0918
AAACACAC	0.127
ACCTACAT	-0.0682
CGCAAGAG	-0.00655
ACGGTACT	-0.0252
GGATAGAC	0.0209
GGGGCTAC	-0.159
CCAAAGTC	-0.0544
ATGTGTCC	0.173
GGCTGGAA	-0.116
CGTTTTGC	0.0551
AACTAAGT	0.00148
CCCTGCAG	-0.189
CCTTCACG	-0.0411
GGCCAAGA	-0.0714
CGTGAGAG	-0.225
GCATTACA	-0.0231
CAAAAACC	0.182
CTCGCACA	-0.0367
GCTGGGGA	-0.303
CTGACAGC	-0.109
ACGATCAT	-0.0558
GGTACGAC	-0.189

Sequence	PBM E-score
CAGACAGA	-0.0319
CATCCCAA	0.0166
GCCGAGAC	0.327
CACTCCGC	-0.0284
ACTTTCAG	0.0817
GCACTCCA	-0.187
CATATCTC	-0.00517
CTCGATGC	-0.125
GGCTACTA	0.0546
AGCACACG	-0.11
AAAATAAC	0.014
CACGTGAA	-0.0117
TATGGAAA	0.179
CGGACATC	0.202
CGCCGAAA	0.293
CGCGGACC	0.215
GGTCAAGA	-0.107
AGTGGATC	-0.0609
ATATGGCG	-0.00201
CAGGGTAA	-0.154
CCTACTAG	-0.244
CAGGATCA	-0.0702
CGGGATCA	0.00237
AAGTACGT	-0.0382
ATCGCTTG	-0.245

Sequence	PBM E-score
AGCCCAAT	-0.0597
ACTTTTCA	-0.115
CCACTGGG	-0.153
CCTTTGTA	0.0705
AGGCAATC	-0.0694
GTCGGCAC	0.1
ACGAATGC	-0.12
ACAATAAC	0.161
CCGGCGAC	0.233
AGGGTTCC	-0.12
GCAACTCA	0.105
CCGCATCC	0.0202
TAGCCTGA	-0.0773
CTACCCAG	-0.167
CTGAAGCA	-0.00127
ACAAAAGG	0.00961
ATTATAGA	0.175
CACTTAGG	0.00498
CGGTTACG	0.148
